# Data as given in PubChem BioAssay AID743255 (National Center for Advancing Translational Sciences (NCATS), 2014).
# By UniProt entry, the sequences of proteins in these tests, tags left out. Where a name states a change or a piece, a line headed by the entry shows the natural chain unless it says otherwise.
# UniProt O94782: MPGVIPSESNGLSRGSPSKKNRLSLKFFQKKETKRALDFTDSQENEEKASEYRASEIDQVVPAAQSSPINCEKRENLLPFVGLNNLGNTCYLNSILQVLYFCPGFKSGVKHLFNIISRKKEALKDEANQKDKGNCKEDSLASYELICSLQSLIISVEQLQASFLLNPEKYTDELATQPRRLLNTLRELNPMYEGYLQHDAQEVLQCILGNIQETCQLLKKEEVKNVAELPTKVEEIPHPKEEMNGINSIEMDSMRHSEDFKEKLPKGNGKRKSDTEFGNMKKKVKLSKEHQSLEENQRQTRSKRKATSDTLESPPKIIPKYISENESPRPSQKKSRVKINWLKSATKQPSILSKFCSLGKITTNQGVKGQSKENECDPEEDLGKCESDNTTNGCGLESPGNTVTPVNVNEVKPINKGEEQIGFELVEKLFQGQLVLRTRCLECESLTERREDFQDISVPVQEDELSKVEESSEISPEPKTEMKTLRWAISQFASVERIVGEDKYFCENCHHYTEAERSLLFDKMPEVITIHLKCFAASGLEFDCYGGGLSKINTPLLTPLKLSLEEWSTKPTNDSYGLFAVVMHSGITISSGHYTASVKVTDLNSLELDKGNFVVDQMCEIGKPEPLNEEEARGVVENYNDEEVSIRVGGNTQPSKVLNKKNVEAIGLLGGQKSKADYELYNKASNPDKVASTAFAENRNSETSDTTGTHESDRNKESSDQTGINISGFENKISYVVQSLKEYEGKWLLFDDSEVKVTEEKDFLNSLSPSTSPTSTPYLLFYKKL
# Out of some 390,000 compounds screened, about 910 (0.23%) were called active. The inconclusive results got no clear call from the source; some entries with a clear call stand among them for comparison. Calls follow the shape of the dose curve; as a rule, active = well fitted inhibition curve with a large enough effect; inconclusive = small, poorly fitted or top-dose-only effect; inactive = no such curve, though single readings can be large or run the other way. Potencies beside an inconclusive call are fits to weak or partial responses and may not hold up.
# Molecular target: Ubiquitin carboxyl-terminal hydrolase 1 (Homo sapiens) (UniProt O94782)
# Experiment: Inhibitors of USP1/UAF1: Primary Screen; also: nearly all actives have a fitted effect of over 60% in size
# Details: recombinant USP1/UAF1, Ub-Rhodamine cleavage fluorescence; series mostly up to 57.1 µM
# Summary of the method: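 Step one: compound is pinned into 1nM USP1/UAF1 in HEPES pH 7.8 buffer with TCEP. Step two: 15 min room-temperature incubation. Step three: Ub-Rho (150nM final) starts cleavage, tracked by fluorescence over six one-minute reads.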
# Potency is read from the fitted curve at half-maximal effect.
row,Compound,Potency
1,COc1ccc(-c2noc(CCC(=O)N(C)c3cc(Cl)ccc3OC)n2)cc1,"inconclusive: 3.98 µM [inhibitor, full curve]"
2,Cc1ccc(S(=O)(=O)N(CC2CO2)c2cc(Cl)ccc2Cl)cc1 (centres undefined),"inconclusive: 0.447 µM [inhibitor, full curve, poor fit]"
3,CCN(C(=O)c1ccc2c(Cl)c3c(nc2c1)CCC3)c1ccc(C)c(C)c1,"inconclusive: 50.1 µM [inhibitor, partial curve, poor fit]"
4,CCc1nnc(NC(=O)CN2CCN(c3ccccc3OC)CC2)s1,"inconclusive: 0.282 µM [inhibitor, full curve, poor fit]"
5,C[C@H](NC(=O)c1nc[nH]c1C(=O)N[C@@H](Cc1ccccc1)C(=O)OC(C)(C)C)c1ccccc1,"inconclusive: 39.8 µM [inhibitor, partial curve]"
6,Cc1ccc(NC(=O)CCCc2nc(-c3ccco3)no2)cc1Cl,"inconclusive: 8.91 µM [inhibitor, full curve, poor fit]"
7,COc1cccc(Cn2nc(SC)c(S(=O)(=O)c3ccccc3)c2N(C(C)=O)C(C)=O)c1,"inconclusive: 0.282 µM [inhibitor, full curve, poor fit]"
8,CCCCN1C(=O)C(CC(=O)NCc2cccc3ccccc23)CC(C(=O)N2CCOCC2)=C1C (centres undefined),"inconclusive: 0.251 µM [inhibitor, full curve, poor fit]"
9,CCOc1ccc(C(=O)N(Cc2ccc(C(C)C)cc2)Cc2ccco2)cc1,inactive
10,O=C1CCCC2=C1C(c1cn(-c3ccccc3)nc1-c1cccs1)c1c([nH]c(=O)[nH]c1=O)N2 (centres undefined),inactive
11,COc1ccc(-c2nc3ccccn3c2NCc2ccc3c(c2)OCO3)cc1,inactive
12,CC(C)COc1cccc(C(=O)Nc2ccc(S(=O)(=O)N3CCOCC3)cc2)c1,"inconclusive: 5.01 µM [inhibitor, partial curve]"
13,CCOC(=O)c1sc(=S)n(-c2ccccc2Cl)c1SC,"inconclusive: 50.1 µM [inhibitor, partial curve, poor fit]"
14,CCc1ccc(OCCSc2nc3ccccc3n2CC(=O)N2CCCCC2)cc1,"inconclusive: 5.01 µM [inhibitor, partial curve]"
15,Cc1cc(CNC(=O)COc2ccc(F)cc2Cl)cc(C)c1O,"inconclusive: 7.08 µM [inhibitor, single point]"
16,COc1ccc(OC)c(NC(=O)c2oc(=O)c3ccccc3c2-c2ccccc2)c1,"inconclusive: 7.94 µM [inhibitor, full curve, poor fit]"
17,COc1ccc(C2C(C(C)=O)=C(C)N=c3s/c(=C\c4ccc5c(c4)OCO5)c(=O)n32)c(OC)c1 (centres undefined),"inconclusive: 15.8 µM [inhibitor, partial curve]"
18,CCCOc1ccc(C(=O)NNC(=S)NC(=O)c2cc(-c3ccc(Cl)cc3)nc3ccccc23)cc1,"inconclusive: 35.5 µM [inhibitor, partial curve]"
19,COC(=O)c1cc2sccc2n1CC(=O)Nc1cccc(SC)c1,"inconclusive: 28.2 µM [inhibitor, partial curve]"
20,Cc1ccc(-n2c(=O)[nH]cc(C(=O)N3CCc4ccccc43)c2=O)cc1C,"inconclusive: 31.6 µM [inhibitor, single point]"
21,CCOC(=O)N1CCc2c(sc3c2C(=O)NC(c2ccc(N(C)C)cc2)N3)C1 (centres undefined),"inconclusive: 44.7 µM [inhibitor, single point]"
22,O=C1Nc2ccccc2Oc2cc([N+](=O)[O-])cc(Oc3ccccc3)c21,"inconclusive: 35.5 µM [inhibitor, partial curve]"

row,Compound,Potency
1,CCOc1ccccc1NC(=O)CN1CCC(NC(=O)c2ccccc2C)CC1,inactive
2,CCCCN(CCCNC(=O)c1cc(Nc2cccc(SC)c2)nc2ccccc12)Cc1ccccc1,inactive
3,N#Cc1c(SCc2ccccc2)sc(C(=O)c2ccccc2)c1N,inactive
4,COCCN(CCOC)S(=O)(=O)c1ccc(C(=O)Nc2sc3c(c2C(=O)OC)CCN(C)C3)cc1,"inconclusive: 22.4 µM [inhibitor, partial curve]"
5,O=C(O)c1ccc(NC(=S)NC(=O)c2ccc(-c3ccc(Br)cc3)o2)cc1,inactive
6,CCOC(=O)CN=C/C(C(=O)Nc1nccs1)=C(/C)O,"inconclusive: 3.98 µM [inhibitor, partial curve]"
7,CN(C(=O)c1cccc(NC(=O)Cc2cccc(NC(=O)C3CCN(C(=O)C4CC4)CC3)c2)c1)C1CC1,"inconclusive: 0.251 µM [inhibitor, full curve, poor fit]"
8,COc1cccc(NC(=O)c2cccc3c(=O)c4c([nH]c23)CCCC4)c1,inactive
9,Cc1ccc(C(=O)NCCN2CCNC2=O)cc1,"inconclusive: 44.7 µM [inhibitor, partial curve, poor fit]"
10,Cc1ccc(S(=O)(=O)CC(=O)Nc2nc3c(C)cc(C)cc3s2)cc1,inactive
11,O=[N+]([O-])c1ccccc1-c1ccc(C(=S)N2CCCC2)o1,"inconclusive: 28.2 µM [inhibitor, partial curve]"
12,O=Cc1coc2ccc3ccccc3c2c1=O,"inconclusive: 39.8 µM [inhibitor, partial curve, poor fit]"
13,CCS(=O)(=O)N1CCC(C(=O)N2CCc3ccccc3C2)CC1,"inconclusive: 28.2 µM [inhibitor, partial curve]"
14,Cc1ccc(C)c(N2CCN(C(=O)Cn3cnc4onc(-c5ccc(F)cc5)c4c3=O)CC2)c1,"inconclusive: 44.7 µM [inhibitor, partial curve]"
15,COC(=O)C1=NN(C(=O)c2ccc(C)cc2)C(O)(c2ccc(Cl)cc2)C1 (centres undefined),"inconclusive: 0.562 µM [inhibitor, full curve, poor fit]"
16,CCOC(=O)CSc1nc(-c2ccc(OCC)cc2)cc(C(F)(F)F)c1C#N,"inconclusive: 4.47 µM [inhibitor, full curve]"
17,CCC(C)c1ccc(OCc2ccc(C(=O)OC)o2)cc1 (centres undefined),"inconclusive: 0.562 µM [inhibitor, full curve, poor fit]"
18,Cc1ccc(Sc2ccc(NC(=O)CCl)cc2)c(C)c1,"inconclusive: 39.8 µM [inhibitor, partial curve, poor fit]"
19,Cc1ccc(NC(=O)CSc2ccc(-c3ccco3)nn2)cc1,"inconclusive: 5.62 µM [inhibitor, partial curve]"
20,CC(=O)N1CCC(N(Cc2ccc(C)o2)C(=O)Nc2cccc(C(F)(F)F)c2)CC1,"inconclusive: 4.47 µM [inhibitor, single point]"
21,CC(C)(C)c1ccc(S(=O)(=O)/N=C2\C=C(NS(=O)(=O)c3ccccc3)C(=O)c3ccccc32)cc1,"inconclusive: 31.6 µM [inhibitor, partial curve]"
22,CCOc1cc(C(=O)Nc2cc3c(cc2N2CCCC2)n(C)c(=O)c(=O)n3C)cc(OCC)c1OCC,"inconclusive: 17.8 µM [inhibitor, partial curve, poor fit]"

# Looked up above.
# CCOC(=O)CN=C/C(C(=O)Nc1nccs1)=C(/C)O – Potency: inconclusive: 3.98 µM [inhibitor, partial curve]
# Cc1ccc(C(=O)NCCN2CCNC2=O)cc1 – Potency: inconclusive: 44.7 µM [inhibitor, partial curve, poor fit]

# (continued)

row,Compound,Potency
1,O=C1C(c2ccc(F)cc2)N(CCc2ccc(Cl)cc2)C(=O)CN1C1CCCCC1 (centres undefined),"inconclusive: 3.98 µM [inhibitor, single point]"
2,O=C(CCCCn1c(=O)[nH]c2ccccc2c1=O)NC1CCN(Cc2ccccc2)CC1,"inconclusive: 5.01 µM [inhibitor, partial curve]"
3,O=C(Nc1sc2c(c1C(=O)NCc1ccco1)CCCC2)c1cc(=O)c2cc(Cl)ccc2o1,"inconclusive: 5.62 µM [inhibitor, partial curve]"
4,COC(=O)c1c(NC(=O)c2ccc(OC)cc2OC)sc2c1CCCCC2,"inconclusive: 12.6 µM [inhibitor, partial curve, poor fit]"
5,CCN1CCN(c2csc3ccc(Br)cc3c2=O)CC1,inactive
6,CC(C)C[C@H]1CN=C(Nc2ccccc2)N1CC1CCC(C)CC1 (some centres undefined),inactive
7,O=C(COc1ccc(Cl)cc1)NNC(=O)c1ccc(=O)[nH]c1,"inconclusive: 2.82 µM [inhibitor, full curve, poor fit]"
8,Cc1cccc(NC(=S)NC(=O)c2oc3ccccc3c2C)n1,"inconclusive: 0.355 µM [inhibitor, full curve, poor fit]"
9,O=c1cc(-c2ccco2)oc2c1ccc1ccccc12,inactive
10,O=C1CSC(c2ccccc2[N+](=O)[O-])N1CCc1ccccc1 (centres undefined),"inconclusive: 5.62 µM [inhibitor, full curve]"
11,CC1=CC(C)(C)NC(=S)N1c1cccc2cc(S(=O)(=O)O)ccc12,"inconclusive: 35.5 µM [inhibitor, partial curve]"
12,CCOc1ccc(NC2=CC(=O)C(=O)c3ccccc32)cc1,active: 25.1 µM
13,COc1cccc(CNCCc2c[nH]c3ccccc23)c1OCc1ccc(F)cc1,inactive
14,O=C(Nc1cccc(-n2cnnn2)c1)c1ccco1,inactive
15,O=C(Cn1cnc2ccccc2c1=O)Nc1ccc2c(c1)OCCO2,inactive
16,COc1ccc(-c2noc(CCC(=O)N3CCN(c4ccc(Cl)cc4)CC3)n2)cc1,"inconclusive: 1000 µM [inhibitor, partial curve, poor fit]"
17,CC(=O)Nc1ccc(C=NNc2ccc(S(=O)(=O)Nc3ccccc3C(=O)O)cc2[N+](=O)[O-])cc1,inactive
18,O=C(CN1C(=O)c2ccccc2C1=O)NC1(C(=O)O)CCCC1,"inconclusive: 15.8 µM [inhibitor, partial curve, poor fit]"
19,O=C(N/N=C/c1ccc[nH]1)c1ccccc1O,"inconclusive: 0.251 µM [inhibitor, full curve]"
20,Cc1cc(=O)[nH]c2nnc(SCc3ccc(Cl)cc3Cl)n12,inactive
